Measurements as given in PubChem BioAssay AID2685 (National Center for Advancing Translational Sciences (NCATS), 2010).
Some of the results follow. The main result of the screen is listed elsewhere. These columns were measured beside it and carry no call. Compounds called inactive in the main read-out are mostly missing here. Words in brackets tell the shape of the fitted curve; partial curves, single points and poor fits give uncertain potencies.

Experiment: qHTS Assay for Lipid Storage Modulators in Drosophila S3 Cells;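 on cell number change: cells counted by Cell Tracker Red CMTPX staining in the red channel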
Settings: BODIPY lipid droplet fluorescence, 18-24 h; for cell number change: measured here: cell count max response, cells fed with added oleic acid
Method in brief: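 Laser-scanning cytometry quantifies lipid droplet accumulation (500–530 nm total intensity; droplet/cell object ratio) in oleic acid-fed (400 uM added) Drosophila S3 cells treated with a concentration series. 20 uM Triacsin C defined 100% inhibition.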

[1] = measured here: cell number channel AC50, cells fed with added oleic acid
[2] = measured here: lipid fluorescence (Fed channel) AC50, cells fed with added oleic acid

Compound | cell number change [%] | AC50 [1] | AC50 [2]
COc1cc(/C=C/C(=O)O)cc(S(=O)(=O)Nc2ccc(F)cc2)c1OC | -44.1 | 20.6 µM [falling, partial curve] | 8.2 µM [falling, partial curve, poor fit]
CCOC(=O)C(NC(=O)c1ccccc1)(Nc1cc(C)on1)C(F)(F)F (stereo not drawn) |  | 3.66 µM [falling, single point] | 
Cc1ccc(S(=O)(=O)N2CCCC2)cc1C(=O)N1CCC(C)CC1 | 3.22 |  | 0.461 µM [falling, single point]
Cc1ccc(C(=O)NCC(=O)Nc2cc(C)ccn2)cc1 | 11.4 |  | 
CCN(c1ccccc1)S(=O)(=O)c1ccc(OC)c(NC(=O)C2=NN(c3ccccc3)C(=O)CC2)c1 | 20.5 | 0.461 µM [rising, full curve, poor fit] | 
Cc1ccc(S(=O)(=O)N2CCC(=O)N(C(COCc3ccc(Cl)cc3)C(C)C)CC2)cc1 (stereo not drawn) | -2.28 |  | 18.4 µM [rising, single point]
CCN(CC)CCN(C(=O)c1ccc(S(=O)(=O)N2CCCC2)cc1)c1nc2cc(C)cc(C)c2s1 | 20.4 |  | 35.5 µM [rising, single point]
Cc1ccc(OC(=O)CCS(=O)(=O)c2ccc(C)cc2)cc1 | -29.7 |  | 
Cc1cccc(OCCCC(=O)Nc2ccc(S(=O)(=O)Nc3ncccn3)cc2)c1C | 44.1 | 16.4 µM [rising, partial curve, poor fit] | 4.61 µM [rising, partial curve]
COc1ccc(C(=O)Nc2ccnn2C2CCN(CC3CC=CCC3)CC2)cc1 (stereo not drawn) | 26.6 |  | 6.51 µM [falling, single point]
O=C(CSc1nnc(-c2ccco2)o1)c1ccc(O)cc1O | -15.9 | 0.461 µM [rising, single point] | 
CN(Cc1ccccc1)C(=O)C1CCN(S(=O)(=O)c2ccc(-n3cnnn3)cc2)CC1 | -7.89 |  | 5.62 µM [rising, single point]
CC(C)CCOP(=O)(c1ccc(N(C)C)cc1)C(O)c1ccc(Cl)cc1Cl (stereo not drawn) | -46.3 | 32.6 µM [falling, single point] | 29.1 µM [falling, single point]
CN(C)S(=O)(=O)c1ccc2oc(SCC(=O)NCC(F)(F)F)nc2c1 | -43.5 |  | 23.1 µM [falling, partial curve, poor fit]
N#Cc1cccc(NC(=O)CN2NS(=O)(=O)c3ccccc3C2=O)c1 | 13 |  | 0.731 µM [falling, full curve, poor fit]
Cc1ccc(NC(=S)NCCN2CCOCC2)cc1C | -23.5 |  | 
O=C(c1ccc(COc2ccc3ccccc3c2)o1)N1N=C(C(F)F)CC1(O)C(F)F (stereo not drawn) | 32 | 29.1 µM [rising, single point] | 
N#Cc1ccccc1S(=O)(=O)N1CCN(C(=O)CCc2ccccc2)CC1 | 2.65 |  | 0.58 µM [rising, single point]
O=c1cnn(Cc2c(Cl)cccc2Cl)c2ccccc12 | 17.9 |  | 5.8 µM [rising, full curve]

Compound | cell number change [%] | AC50 [1] | AC50 [2]
Cc1cc(NC(=O)c2cncc(Br)c2)n(-c2ccccn2)n1 | 43.5 | 2.91 µM [rising, partial curve] | 2.91 µM [rising, partial curve]
CN(CC(=O)Nc1cccc(F)c1)C(=O)Cc1n[nH]c(=O)c2ccccc12 | -20 |  | 
C=CCn1c(SCC(=O)Nc2cccc(C(=O)OC)c2)nnc1C(C)NC(=O)c1cccs1 (stereo not drawn) | 16.5 |  | 29.1 µM [rising, single point]
CCC(CO)n1c(SCc2cc([N+](=O)[O-])cc3c2OCOC3)nc2ccccc2c1=O (stereo not drawn) | -66.7 | 29.1 µM [falling, single point] | 20.6 µM [rising, single point]
O=C(CC(=O)NCc1cccnc1)NCc1cccnc1 | -10.1 |  | 18.4 µM [falling, partial curve]
C(=C/c1nccc2c1[nH]c1ccccc12)/c1ccc2c(c1)OCO2 | -31.1 | 13 µM [falling, partial curve] | 25.9 µM [falling, partial curve]
CC(C)c1ccc(NC(=O)C2CSC3(C)CCC(=O)N23)cc1 (stereo not drawn) | 25.4 | 0.259 µM [rising, full curve, poor fit] | 16.4 µM [rising, partial curve]
CC(C)(CCC(=S)N1CCOCC1)C1CCCCC1 | 9.12 |  | 29.1 µM [rising, single point]
Cc1ccc(-c2c(C(=O)N/N=C/c3cccc(Cl)c3)nnn2-c2nonc2N)cc1 | 29.9 |  | 
O=C(NCCNC(=O)c1cc(OCC(F)(F)F)ccc1OCC(F)(F)F)Nc1cccc(C(F)(F)F)c1 | -52.3 | 20.6 µM [falling, single point] | 25.9 µM [falling, partial curve]
Cc1ccc(-n2nc3c(=O)n(CCCC(=O)NCc4cccc(F)c4)nc(C)c3c2C)cc1 | -1.15 |  | 29.1 µM [falling, single point]
COc1ccc(/[N+]([O-])=C/c2ccco2)cc1 | 3.13 |  | 0.517 µM [rising, partial curve, poor fit]
O=C(CNC(=S)N(CCCN1CCOCC1)Cc1cccs1)N1CCCCCC1 | 28.7 |  | 29.1 µM [rising, single point]
O=C(CSc1nc2ccccc2c(=O)[nH]1)N1CCN(S(=O)(=O)c2ccccc2)CC1 | -21.5 | 0.82 µM [rising, single point] | 
O=C(OCC#CCSc1nnc(-c2cccc3ccccc23)o1)c1cc2ccccc2o1 |  |  | 0.164 µM [rising, full curve, poor fit]
Cn1c(C(=O)N2CCN(C(=O)c3ccco3)CC2)cc2c(=O)n(C)c3ccccc3c21 | 31.3 | 32.6 µM [rising, single point] | 
COc1ccc(NC(=O)CCSc2cc(C)c3ccccc3n2)cc1 | 168 |  | 
Cc1ccc(-n2ncc3c(NCc4ccco4)ncnc32)c(C)c1 |  | 0.184 µM [rising, full curve, poor fit] | 

One compound at a time, as listed above:
`O=C(OCC#CCSc1nnc(-c2cccc3ccccc23)o1)c1cc2ccccc2o1` is entered as AC50 [2]: 0.164 µM [rising, full curve, poor fit]
`O=C(CNC(=S)N(CCCN1CCOCC1)Cc1cccs1)N1CCCCCC1` is entered as cell number change [%]: 28.7; AC50 [2]: 29.1 µM [rising, single point]
